Data set [1] is described as follows: general procedure: Fmoc solid-phase peptide synthesis; Fmoc-Gly-RAM TentaGel resin (0.22 mmol/g); Fmoc-NH TentaGel RAM resin (0.23 mmol/g); HATU/DIPEA. The note with it: for cyclisation yield: cyclisation step.
A short description of data set [2]: general procedure: Fmoc solid-phase peptide synthesis; Fmoc-Gly-RAM TentaGel Resin; HATU/DIPEA. The note with it: whole synthesis, scale 0.25 mmol.
Data set [3] is described as follows: general procedure: Fmoc solid-phase peptide synthesis; Fmoc-NH TentaGel RAM Resin; HATU/DIPEA. The note with it: whole synthesis, scale 0.1 mmol.
The mark [4] stands for this setting: whole synthesis, scale 0.1 mmol.

These results are taken from patent US12209144B2 (Novartis AG, priority 2018, dated 2025).

As for “3-((3R,9S,12S,15S,18S,21S,24S,27S,30S,33S,36S,39S,44aS)-30-([1,1′-biphenyl]-4-ylmethyl)-15-(2-amino-2-oxoethyl)-9,24-dibenzyl-3-(ethylcarbamoyl)-18,21-bis((R)-1-hydroxyethyl)-12-isopropyl-26,27,32,33,35,39-hexamethyl-1,7,10,13,16,19,22,25,28,31,34,37,40-tridecaoxodotetracontahydro-6H-pyrrolo[2,1-f][1]thia[4,7,10,13,16,19,22,25,28,31,34,37,40]tridecaazacyclodotetracontin-36-yl)propanoic acid”, in data set [1] (setting [4]), the isolated mass is given as 36 mg and the isolated yield was 22%. As for “3-((3R,9S,12S,15S,18S,21S,24S,27S,30S,33S,36S,39S,44aS)-30-([1,1′-biphenyl]-4-ylmethyl)-36-(2-amino-2-oxoethyl)-3-((2-amino-2-oxoethyl)carbamoyl)-9,27-dibenzyl-15-(carboxymethyl)-18,21-bis((R)-1-hydroxyethyl)-24,39-bis(hydroxymethyl)-12-isopropyl-26,32-dimethyl-1,7,10,13,16,19,22,25,28,31,34,37,40-tridecaoxodotetracontahydro-6H-pyrrolo[2,1-f][1]thia[4,7,10,13,16,19,22,25,28,31,34,37,40]tridecaazacyclodotetracontin-33-yl)propanoic acid”, in data set [2], the crude mass is on record as 266 mg. On to “(6S,8aS,14S,17S,20S,23S,26S,29S,31aS,37S,40S,46R,48aS)-23,40-dibenzyl-17-(4-chlorobenzyl)-26,29-bis((R)-1-hydroxyethyl)-37-isopropyl-6,14,15,20,21-pentamethyl-5,8,13,16,19,22,25,28,31,36,39,42,48-tridecaoxohexatetracontahydro-13H-tripyrrolo[1,2-e1:1′,2′-j:1″,2″-k1][1]thia[4,7,10,13,16,19,22,25,28,31,34,37,40]tridecaazacyclodo-tetracontine-46-carboxamide”, for which the crude mass in data set [3] is 106 mg.

In turn, “Ac*-F-V-D-T-T-S-(N-Me)F-B-(N-Me)E-N-S-P-C*-G-NH2” had a cyclisation yield in data set [1] of 22%. The same measure, in the same setting: with “ClCH2C(O)-F-V-N-T-T-F-(N-Me)A-B-(N-Me)A-(N-Me)E-A-P-C-N(H)Et” the figure was 76%; with “ClCH2C(O)-F-V-P-T-T-F-(N-Me)A-(p-Cl)F-(N-Me)A-P-A-P-C-NH2”, 9%.
